About 1,400 (4.5%) of roughly 31,000 sequences were called active.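 How the source made its calls: active means median seed-adjusted z-score above 1 or below -1; inactive means the rest.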 The list shows a part of the results.

The assay is described as follows: Novel Modifiers of Survival Motor Neuron (SMN) Protein: Gene Identification via Genome-wide siRNA Screen.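 Further: luminescence tracks full-length SMN protein made from the SMN2 reporter.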 Conditions: HEK293T SMN2-luciferase reporter, siRNA knockdown, 72 h; actives lie on both sides. Put shortly:
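Steps: spot 1 pmol siRNA, add Lipofectamine RNAiMax in serum-free DMEM, seed HEK293T SMN2–luciferase reporter cells; incubate 72 h at 37 °C; add ONE-Glo; normalize luminescence to control siRNA, log10, MAD. Candidates: |MAD| > 1.0.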
Turning to GGAUUAACAUAUGAUGACATT against ADAM18, the median seed-adjusted z-score is inactive: -0.913. In the case of GCAUUUCGCCUCUUUCACATT against ELAC1, the median seed-adjusted z-score was inactive: 0.967. Turning to CAUCAAUCCCAGAAGAUAATT against ZNF570, the median seed-adjusted z-score was inactive: 0.662. On to GGAAGAUGACAACAACUCUTT against CACNA1S, for which the median seed-adjusted z-score was inactive: 0.842. In the case of CCACCAUAGGAUAUGGUUATT against KCNJ16, the median seed-adjusted z-score is inactive: -0.705. As to GGUCCGCUACUACCACCAATT against FUT4, the median seed-adjusted z-score was inactive: -0.24.

Take “CGGUCAGCAGUGUUCGUGATT against ST6GALNAC6”: the median seed-adjusted z-score was inactive: 0.367. In the case of ACUUCAAGCUCCUAAGCCATT against HBA1, the median seed-adjusted z-score was active: -1.03.

Regarding GCAGCAAACUUGCCCAGAUTT against PBX2, the median seed-adjusted z-score was inactive: 0.253. With GAGCACGACUGAAAAUGUATT against PTS the figure was inactive: -0.103. For the sequence CAAUCAUGUCGAGAAAUAATT against TGIF2LX, the median seed-adjusted z-score was inactive: -0.568. Take CCCUGUUCUUGACUCGGCATT against ADAM33: the median seed-adjusted z-score is inactive: -0.038. With GGACUGGUGUUGGACAUCATT against ADCY3 the figure was inactive: -0.294; with GCUCUCCAACAAUUACUAUTT against NDUFA7, inactive: 0.356. Consider CGAGAAAUUGCACAACCGATT against NACC1, for which the median seed-adjusted z-score was active: 1.59. On to CAUUGAAGUUAGCUAGUGATT against LOC91431, for which the median seed-adjusted z-score was inactive: 0.0402. With CAAGAGACAUUGUGAUCAUTT against ZNF707 the figure was inactive: -0.119.

As to AGGCUAUGCUGAGACAUAUTT against PARG, the median seed-adjusted z-score is inactive: 0. Consider AGAUGAAGCUGGACCUAGATT against TWF2, for which the median seed-adjusted z-score is inactive: 0.303. For AAUACUUCCUAGAAUCACATT against APTX, the median seed-adjusted z-score was inactive: -0.131. With GGGAAUAUCUCUUCCGACATT against ACTL7A the figure was active: 1.1. Regarding GCAGUACCAGGACACUAAATT against MSN, the median seed-adjusted z-score is inactive: -0.736.

In the case of GGAUCAUUCGUGUACAUCATT against ACVR1, the median seed-adjusted z-score was inactive: -0.217. CUCAUGAACUUGCACAACATT against WNT7A: the median seed-adjusted z-score was inactive: 0.0931.

With GAAGUUUUAUGGACCACAATT against UBE2H, the median seed-adjusted z-score was inactive: 0. On to GGCAUCUUACUAUAAGUUUTT against SMG6, for which the median seed-adjusted z-score is inactive: -0.265. The figure for GGAUAAGUAUUCUUACUGUTT against SC5DL is inactive: -0.439; for GUAUAUAGAAGAACUACAATT against RALGPS2 it is inactive: 0.0124.

Take GGAAACUAUUCACCAGUUATT against TRAF6: the median seed-adjusted z-score was inactive: 0.324. As for GGAUCGUUGAUCAGCAUUATT against MAPK4, the median seed-adjusted z-score was inactive: 0.235.

(Values after PubChem BioAssay AID1347426 (Functional Genomics Laboratory (NCATS/FGL), 2020).)
